Measurements published in publication doi:10.1101/2023.12.08.570815.
Where two headings read alike, the source gives them in different places. These are yes or no findings as the source states them, for the method shown. Binding seen in cells or lysates may run through a third protein. Here binding means that the protein was enriched with, or labelled near, the bait; the list need not be complete. For some assays here: Where a sequence is shown, tags or fusion partners need not be part of it.

Chains of the proteins cited; added tags and fusions are not shown. Residues count along the entry.
UniProt Q9C0C7: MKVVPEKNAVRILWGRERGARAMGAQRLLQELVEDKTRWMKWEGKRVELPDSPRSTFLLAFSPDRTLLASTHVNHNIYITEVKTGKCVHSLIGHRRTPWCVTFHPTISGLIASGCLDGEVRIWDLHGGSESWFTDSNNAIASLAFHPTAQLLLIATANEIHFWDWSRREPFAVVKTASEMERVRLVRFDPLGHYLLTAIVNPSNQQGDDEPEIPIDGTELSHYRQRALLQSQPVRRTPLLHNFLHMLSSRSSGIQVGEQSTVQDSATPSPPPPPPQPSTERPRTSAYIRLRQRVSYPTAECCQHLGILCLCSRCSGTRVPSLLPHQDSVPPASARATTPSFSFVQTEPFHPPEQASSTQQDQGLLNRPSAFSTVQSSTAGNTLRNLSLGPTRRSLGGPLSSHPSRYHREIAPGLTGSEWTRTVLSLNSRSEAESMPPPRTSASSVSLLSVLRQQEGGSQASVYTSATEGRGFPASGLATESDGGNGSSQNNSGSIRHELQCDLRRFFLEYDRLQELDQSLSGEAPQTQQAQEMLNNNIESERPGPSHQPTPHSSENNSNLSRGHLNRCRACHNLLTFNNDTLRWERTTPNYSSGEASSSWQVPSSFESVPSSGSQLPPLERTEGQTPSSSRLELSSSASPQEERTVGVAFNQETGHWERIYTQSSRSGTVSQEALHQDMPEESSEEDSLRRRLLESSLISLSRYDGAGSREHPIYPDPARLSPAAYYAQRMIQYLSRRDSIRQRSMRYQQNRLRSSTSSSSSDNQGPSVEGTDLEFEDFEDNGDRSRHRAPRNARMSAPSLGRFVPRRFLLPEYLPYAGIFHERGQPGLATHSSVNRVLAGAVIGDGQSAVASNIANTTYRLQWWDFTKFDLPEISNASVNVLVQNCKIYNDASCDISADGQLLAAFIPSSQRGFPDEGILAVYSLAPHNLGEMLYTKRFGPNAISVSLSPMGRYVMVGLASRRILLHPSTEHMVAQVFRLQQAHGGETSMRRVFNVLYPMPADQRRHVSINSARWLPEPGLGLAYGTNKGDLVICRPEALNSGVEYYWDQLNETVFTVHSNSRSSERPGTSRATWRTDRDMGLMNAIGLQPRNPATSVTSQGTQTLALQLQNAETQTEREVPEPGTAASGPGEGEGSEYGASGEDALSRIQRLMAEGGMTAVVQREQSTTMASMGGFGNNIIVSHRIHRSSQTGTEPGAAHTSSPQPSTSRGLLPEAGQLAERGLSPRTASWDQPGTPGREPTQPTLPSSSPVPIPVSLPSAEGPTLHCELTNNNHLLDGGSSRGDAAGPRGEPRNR
UniProt P34932: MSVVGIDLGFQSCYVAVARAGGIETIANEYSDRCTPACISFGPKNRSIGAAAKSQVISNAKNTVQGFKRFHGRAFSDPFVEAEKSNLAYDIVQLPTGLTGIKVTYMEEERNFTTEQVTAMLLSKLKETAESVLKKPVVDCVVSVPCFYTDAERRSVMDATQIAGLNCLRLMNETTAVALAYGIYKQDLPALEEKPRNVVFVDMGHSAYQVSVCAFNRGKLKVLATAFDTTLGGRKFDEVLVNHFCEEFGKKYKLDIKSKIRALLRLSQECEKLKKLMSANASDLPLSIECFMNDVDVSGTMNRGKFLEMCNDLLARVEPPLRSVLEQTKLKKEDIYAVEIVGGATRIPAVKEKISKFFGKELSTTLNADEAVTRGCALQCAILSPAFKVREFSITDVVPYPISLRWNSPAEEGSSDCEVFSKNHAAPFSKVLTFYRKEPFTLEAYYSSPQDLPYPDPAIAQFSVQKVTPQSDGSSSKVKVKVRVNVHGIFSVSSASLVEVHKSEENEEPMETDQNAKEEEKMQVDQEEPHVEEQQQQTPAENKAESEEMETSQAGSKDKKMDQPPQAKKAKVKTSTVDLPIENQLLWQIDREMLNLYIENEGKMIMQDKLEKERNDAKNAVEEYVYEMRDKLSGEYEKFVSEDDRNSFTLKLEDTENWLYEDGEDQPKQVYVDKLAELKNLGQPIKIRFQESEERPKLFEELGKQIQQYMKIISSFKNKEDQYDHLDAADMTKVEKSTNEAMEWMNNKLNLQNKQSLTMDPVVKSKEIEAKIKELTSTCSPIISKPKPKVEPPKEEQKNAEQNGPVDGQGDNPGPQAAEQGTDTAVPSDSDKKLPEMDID
UniProt P38646, residues 47-679: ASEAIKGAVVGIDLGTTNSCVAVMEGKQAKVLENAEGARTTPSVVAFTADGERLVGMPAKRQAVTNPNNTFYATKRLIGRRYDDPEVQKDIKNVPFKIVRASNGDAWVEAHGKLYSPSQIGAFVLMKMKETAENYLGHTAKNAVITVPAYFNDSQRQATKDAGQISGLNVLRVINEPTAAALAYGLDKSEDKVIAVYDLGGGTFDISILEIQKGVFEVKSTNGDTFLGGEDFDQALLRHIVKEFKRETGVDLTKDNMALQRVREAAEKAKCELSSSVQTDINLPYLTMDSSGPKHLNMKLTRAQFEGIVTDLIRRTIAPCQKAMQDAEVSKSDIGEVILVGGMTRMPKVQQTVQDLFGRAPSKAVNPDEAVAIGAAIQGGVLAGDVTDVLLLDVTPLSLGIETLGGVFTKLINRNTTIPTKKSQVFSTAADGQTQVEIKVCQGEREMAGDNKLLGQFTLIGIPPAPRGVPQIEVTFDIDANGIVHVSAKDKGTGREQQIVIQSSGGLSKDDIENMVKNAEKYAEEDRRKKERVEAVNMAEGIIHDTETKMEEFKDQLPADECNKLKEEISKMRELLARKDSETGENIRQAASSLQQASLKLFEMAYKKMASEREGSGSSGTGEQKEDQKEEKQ

T1: SHA-tagged BAG2 I160A (human (HEK293T cDNA)) (UniProt O95816)
T1 sequence: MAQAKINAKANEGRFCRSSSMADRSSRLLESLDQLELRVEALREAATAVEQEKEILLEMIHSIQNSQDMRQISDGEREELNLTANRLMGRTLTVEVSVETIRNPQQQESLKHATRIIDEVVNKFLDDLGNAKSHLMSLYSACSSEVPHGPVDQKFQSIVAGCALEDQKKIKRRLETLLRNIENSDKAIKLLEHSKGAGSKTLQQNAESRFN

T2: SHA-tagged BAG2 S31E (human (HEK293T cDNA)) (UniProt O95816)
T2 sequence: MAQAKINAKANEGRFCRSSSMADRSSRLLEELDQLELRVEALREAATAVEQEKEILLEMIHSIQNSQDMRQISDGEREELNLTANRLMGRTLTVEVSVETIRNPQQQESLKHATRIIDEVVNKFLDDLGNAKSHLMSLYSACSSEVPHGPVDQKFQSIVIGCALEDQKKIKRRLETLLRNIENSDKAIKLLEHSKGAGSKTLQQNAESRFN


Legend:
Experiment in all cases: affinity purification with mass spectrometry
[1] = target: Activating molecule in BECN1-regulated autophagy protein 1 (AMBRA1), endogenous (human (endogenous in HeLa)) (UniProt Q9C0C7)
[2] = target: T1, SHA-tagged BAG2 I160A (human (HEK293T cDNA))
[3] = target: SHA-tagged BAG2 wild type (human (HEK293T cDNA)) (UniProt O95816)
[4] = target: T1, SHA-tagged BAG2 I160A (human (HEK293T cDNA)); remark: listed apart in the source
[5] = target: T2, SHA-tagged BAG2 S31E (human (HEK293T cDNA))
[6] = target: SHA-tagged BAG2 wild type (human (HEK293T cDNA)) (UniProt O95816); remark: listed apart in the source

| Molecule | binding [2] | binding [3] | also measured |
| --- | --- | --- | --- |
| Bcl-2-associated athanogene 2 (BAG2), endogenous (from UniProt O95816 1-211) |  |  | binding [1]: binds |
| HSPA4, endogenous (from UniProt P34932 1-840) | binds | binds |  |
| HSPA9, endogenous (from UniProt P38646 47-679) | binds | binds |  |
| chloride ion channel CLCC1, endogenous (protein, UniProt Q96S66 19-551) HDDDWIDPTDMLNYDAASGTMRKSQAKYGISGEKDVSPDLSCADEISECYHKLDSLTYKIDECEKKKREDYESQSNPVFRRYLNKILIEAGKLGLPDENKGDMHYDAEIILKRETLLEIQKFLNGEDWKPGALDDALSDILINFKFHDFETWKWRFEDSFGVDPYNVLMVLLCLLCIVVLVATELWTYVRWYTQLRRVLIISFLFSLGWNWMYLYKLAFAQHQAEVAKMEPLNNVCAKKMDWTGSIWEWFRSSWTYKDDPCQKYYELLLVNPIWLVPPTKALAVTFTTFVTEPLKHIGKGTGEFIKALMKEIPALLHLPVLIIMALAILSFCYGAGKSVHVLRHIGGPESEPPQALRPRDRRRQEEIDYRPDGGAGDADFHYRGQMGPTEQGPYAKTYEGRREILRERDVDLRFQTGNKSPEVLRAFDVPDAEAREHPTVVPSHKSPVLDTKPKETGGILGEGTPKESSTESSQSAKPVSGQDTSGNTEGSPAAEKAQLKSEAAGSPDQGSTYSPARGVAGPRGQDPVSSPCG |  |  | binding [4]: binds; binding [5]: binds; binding [6]: binds |
